This assay has as its target T1, Annexin A5 (human (endogenous in primary trophoblasts)), P08758.
T1 chain: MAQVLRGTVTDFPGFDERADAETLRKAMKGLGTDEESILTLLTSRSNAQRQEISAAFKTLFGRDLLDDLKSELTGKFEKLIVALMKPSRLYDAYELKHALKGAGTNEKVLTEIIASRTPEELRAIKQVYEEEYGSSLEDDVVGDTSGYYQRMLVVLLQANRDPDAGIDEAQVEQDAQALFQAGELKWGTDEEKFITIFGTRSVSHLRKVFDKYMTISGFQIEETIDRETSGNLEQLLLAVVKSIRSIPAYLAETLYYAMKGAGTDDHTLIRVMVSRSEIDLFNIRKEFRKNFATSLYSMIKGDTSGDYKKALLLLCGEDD
The experiment in a line: far-Western, overlay or dot blot; plasma membrane fractions of cytotrophoblasts or syncytiotrophoblasts resolved by SDS-PAGE and blotted to nitrocellulose; overlaid 16 h at 4 °C with 0.5 μM AnxA5-CF770 alone or with an excess of unlabelled AnxA5 (1 μM); bands that were competed were identified by nanoLC-LTQ Orbitrap mass spectrometry of tryptic digests (Mascot score >30); only the binder purified. As to conditions: remark: other sources report otherwise.

These are yes or no findings as the source states them, for the method shown. Some entries that bind do so weakly or less than the wild type.

B1: AnxA5-CF770, P08758 1-320 (protein)
chain: T1 chain
modifications: here or on the partner: CF770 dye conjugate (site not stated)
On to B1, for which the binding result was “binds”.

(Values after paper PMC5297248.)
